PubChem BioAssay AID743121 | NCATS – 2013

- Purpose: 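Knock-downs that sensitise breast cancer cells to camptothecin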 (primary screen)
- Cell system: MDA-MB-231 cells, a human breast cancer line
- Knock-down reagent: single siRNA against human genes, 20 nM siRNA (0.8 pmol per well)
- Time to read-out: 120 h (drug added 48 h after transfection, read 72 h later)
- Conditions: camptothecin 20 nM (about EC30) for 72 h; vehicle 0.1% DMSO in parallel plates
- Measured: 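Cell viability by ATP luminescence (CellTiter-Glo) as % of non-targeting siRNA wells, and the log2 ratio of viability without drug over viability with camptothecin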
- Scale: log2 vehicle/camptothecin viability: higher = stronger sensitisation to camptothecin; viability with camptothecin and viability without drug: higher = more viable cells
- Rule for the call: 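Each gene scored by redundant siRNA activity (RSA) over its individual siRNA ratios; a gene is called active at p < 0.001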
The whole screen tested about 26,000 reagents; below is an unselected part. Over the whole deposit, 167 (0.63%) are marked active. 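Calls are per gene from RSA p-values that are not deposited; an individual active-marked siRNA can sensitise only weakly.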 Reagents against one gene are numbered here.

Gene | siRNA no. | log2 vehicle/camptothecin viability | viability with camptothecin (% of control) | viability without drug (% of control) | call
FANCF (FA complementation group F) | 1 | 0.185 | 97.5 | 111 | inactive
FANCF (FA complementation group F) | 2 | -0.00958 | 108 | 108 | inactive
FANCF (FA complementation group F) | 3 | -0.198 | 120 | 105 | inactive
FANCF (FA complementation group F) | 4 | -0.529 | 81.2 | 56.3 | inactive
LIPH (lipase H) | 1 | 0.465 | 45.6 | 62.9 | inactive
LIPH (lipase H) | 2 | -0.488 | 63 | 44.9 | inactive
LIPH (lipase H) | 3 | -0.0307 | 81.6 | 79.9 | inactive
LIPH (lipase H) | 4 | -0.00357 | 86.7 | 86.5 | inactive
FOLR3 (folate receptor gamma) | 1 | -0.192 | 100 | 87.6 | inactive
FOLR3 (folate receptor gamma) | 2 | 0.412 | 71.3 | 94.8 | inactive
FOLR3 (folate receptor gamma) | 3 | -0.445 | 47 | 34.5 | inactive
FOLR3 (folate receptor gamma) | 4 | -0.157 | 29.7 | 26.6 | inactive
SLC25A45 | 1 | 0.769 | 38.8 | 66.2 | inactive
SLC25A45 | 2 | 0.176 | 61.2 | 69.2 | inactive
SLC25A45 | 3 | -0.605 | 89.6 | 58.9 | inactive
BCAP31 (B cell receptor associated protein 31) | 1 | -0.213 | 77.1 | 66.5 | inactive
BCAP31 (B cell receptor associated protein 31) | 2 | -0.485 | 75.3 | 53.8 | inactive
BCAP31 (B cell receptor associated protein 31) | 3 | -0.291 | 68 | 55.6 | inactive
BCAP31 (B cell receptor associated protein 31) | 4 | -0.0392 | 72.6 | 70.6 | inactive
HHIPL1 (HHIP like 1) | 1 | -0.224 | 63 | 53.9 | inactive
HHIPL1 (HHIP like 1) | 2 | -0.313 | 102 | 81.8 | inactive
HHIPL1 (HHIP like 1) | 3 | -0.485 | 62.2 | 44.5 | inactive
HHIPL1 (HHIP like 1) | 4 | -0.00551 | 84.8 | 84.4 | inactive
SIAH2 (siah E3 ubiquitin protein ligase 2) | 1 | -0.113 | 101 | 93.5 | inactive
SIAH2 (siah E3 ubiquitin protein ligase 2) | 2 | -0.0922 | 105 | 98.7 | inactive
SIAH2 (siah E3 ubiquitin protein ligase 2) | 3 | -0.0285 | 37.5 | 36.8 | inactive
SIAH2 (siah E3 ubiquitin protein ligase 2) | 4 | -0.0178 | 82.4 | 81.4 | inactive
PHLPP1 (PH domain and leucine rich repeat protein phosphatase 1) | 1 | -0.514 | 77.3 | 54.1 | inactive
PHLPP1 (PH domain and leucine rich repeat protein phosphatase 1) | 2 | 0.116 | 83.2 | 90.2 | inactive
PHLPP1 (PH domain and leucine rich repeat protein phosphatase 1) | 3 | 0.404 | 67 | 88.7 | inactive
PHLPP1 (PH domain and leucine rich repeat protein phosphatase 1) | 4 | -0.00549 | 116 | 115 | inactive
CPNE4 (copine 4) | 1 | 0.762 | 27.2 | 46.1 | inactive
CPNE4 (copine 4) | 2 | -0.0534 | 97.7 | 94.2 | inactive
CPNE4 (copine 4) | 3 | -0.212 | 68.1 | 58.7 | inactive
FBXO16 (F-box protein 16) | 1 | -0.391 | 103 | 78.3 | inactive
FBXO16 (F-box protein 16) | 2 | 0.22 | 85.4 | 99.5 | inactive
FBXO16 (F-box protein 16) | 3 | -0.314 | 97.3 | 78.2 | inactive
FBXO16 (F-box protein 16) | 4 | -0.408 | 124 | 93.4 | inactive
GRPR (gastrin releasing peptide receptor) | 1 | -0.22 | 69.8 | 60 | inactive
GRPR (gastrin releasing peptide receptor) | 2 | -0.591 | 110 | 73.1 | inactive
GRPR (gastrin releasing peptide receptor) | 3 | -0.682 | 91.2 | 56.9 | inactive
GRPR (gastrin releasing peptide receptor) | 4 | -0.244 | 117 | 98.6 | inactive
RARS2 (arginyl-tRNA synthetase 2, mitochondrial) | 1 | 0.5 | 57.6 | 81.4 | inactive
RARS2 (arginyl-tRNA synthetase 2, mitochondrial) | 2 | -0.342 | 93.3 | 73.6 | inactive
RARS2 (arginyl-tRNA synthetase 2, mitochondrial) | 3 | -0.247 | 107 | 90.1 | inactive
RARS2 (arginyl-tRNA synthetase 2, mitochondrial) | 4 | -0.233 | 105 | 89.6 | inactive
CPZ (carboxypeptidase Z) | 1 | -0.508 | 89.9 | 63.2 | inactive
CPZ (carboxypeptidase Z) | 2 | -0.57 | 47.7 | 32.2 | inactive
CPZ (carboxypeptidase Z) | 3 | -0.403 | 39.3 | 29.7 | inactive
CPZ (carboxypeptidase Z) | 4 | -0.189 | 80.5 | 70.6 | inactive
PTK7 (protein tyrosine kinase 7 (inactive)) | 1 | -0.193 | 90.2 | 78.9 | inactive
PTK7 (protein tyrosine kinase 7 (inactive)) | 2 | -0.274 | 86 | 71.1 | inactive
PTK7 (protein tyrosine kinase 7 (inactive)) | 3 | 0.225 | 71 | 83 | inactive
PTK7 (protein tyrosine kinase 7 (inactive)) | 4 | -0.0595 | 49.1 | 47.1 | inactive
P2RX3 (purinergic receptor P2X 3) | 1 | -0.111 | 111 | 103 | inactive
P2RX3 (purinergic receptor P2X 3) | 2 | 0.0497 | 98.7 | 102 | inactive
P2RX3 (purinergic receptor P2X 3) | 3 | -0.0166 | 43 | 42.6 | inactive
PDGFRA (platelet derived growth factor receptor alpha) | 1 | -0.0967 | 91.9 | 85.9 | inactive
PDGFRA (platelet derived growth factor receptor alpha) | 2 | -0.389 | 94.6 | 72.2 | inactive
PDGFRA (platelet derived growth factor receptor alpha) | 3 | -0.345 | 75.2 | 59.2 | inactive
PDGFRA (platelet derived growth factor receptor alpha) | 4 | -0.388 | 81.6 | 62.3 | inactive
CPB2 (carboxypeptidase B2) | 1 | -0.643 | 96 | 61.5 | inactive
CPB2 (carboxypeptidase B2) | 2 | -0.103 | 98.3 | 91.6 | inactive
CPB2 (carboxypeptidase B2) | 3 | 0.272 | 88.4 | 107 | inactive
CPB2 (carboxypeptidase B2) | 4 | -0.205 | 10.8 | 9.35 | inactive
AKR1C6P (aldo-keto reductase family 1 member C6, pseudogene) | 1 | -0.0384 | 83 | 80.8 | inactive
AKR1C6P (aldo-keto reductase family 1 member C6, pseudogene) | 2 | 0.0789 | 76.6 | 80.9 | inactive
AKR1C6P (aldo-keto reductase family 1 member C6, pseudogene) | 3 | -0.0457 | 76.9 | 74.5 | inactive
AKR1C6P (aldo-keto reductase family 1 member C6, pseudogene) | 4 | -0.0662 | 91.8 | 87.7 | inactive

Records listed so far whose gene name begins with B or b:
Gene | siRNA no. | log2 vehicle/camptothecin viability | viability with camptothecin (% of control) | viability without drug (% of control) | call
BCAP31 (B cell receptor associated protein 31) | 1 | -0.213 | 77.1 | 66.5 | inactive
BCAP31 (B cell receptor associated protein 31) | 2 | -0.485 | 75.3 | 53.8 | inactive
BCAP31 (B cell receptor associated protein 31) | 3 | -0.291 | 68 | 55.6 | inactive
BCAP31 (B cell receptor associated protein 31) | 4 | -0.0392 | 72.6 | 70.6 | inactive
